Values from PubChem BioAssay AID1224830 (NIAID, 2016).

- Purpose: 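Host factors that control LPS-induced TNF expression in human macrophages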 (primary screen)
- Cell system: human THP-1 monocytic leukaemia cells, TNF dual-luciferase reporter clone, PMA-differentiated to macrophage-like cells
- Reagent: siRNA pool against human genes, 50 nM
- Time to read-out: LPS for 4 h, given about 3 days after siRNA transfection
- Conditions: bacterial LPS (TLR4 ligand), 10 ng/ml
- Detection: 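TNF firefly reporter luminescence divided by renilla, normalised to the plate median, then turned into a robust z-score for each replicate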
- Reading the numbers: TNF reporter robust z-score: higher = stronger TNF reporter response to LPS
- Call rule: 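a well is active when its z-score exceeds 2.8 or falls below -1.5; control wells carry no call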
The whole screen tested about 18,000 reagents; below is a random part of them. About 2,900 of them (16%) were called active. 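Calls are made per well; low scores hint the gene aids the LPS response, high scores that it dampens it.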 Repeated entries: four replicate wells of each siRNA pool. No sequences are given here.

no.	gene symbol	TNF reporter robust z-score	Outcome
1	CEP131 (centrosomal protein 131)	-0.15	inactive
2	CEP131 (centrosomal protein 131)	-0.33	inactive
3	CEP131 (centrosomal protein 131)	1.39	inactive
4	VPS35L (VPS35 endosomal protein sorting factor like)	0.04	inactive
5	VPS35L (VPS35 endosomal protein sorting factor like)	0.38	inactive
6	VPS35L (VPS35 endosomal protein sorting factor like)	-0.42	inactive
7	VPS35L (VPS35 endosomal protein sorting factor like)	-0.44	inactive
8	C8B (complement C8 beta chain)	0.58	inactive
9	C8B (complement C8 beta chain)	0.56	inactive
10	C8B (complement C8 beta chain)	0.02	inactive
11	C8B (complement C8 beta chain)	0.45	inactive
12	NIPSNAP3B (nipsnap homolog 3B)	-0.4	inactive
13	NIPSNAP3B (nipsnap homolog 3B)	0.28	inactive
14	NIPSNAP3B (nipsnap homolog 3B)	0.16	inactive
15	NIPSNAP3B (nipsnap homolog 3B)	0.62	inactive
16	SNAI3 (snail family transcriptional repressor 3)	-0.27	inactive
17	SNAI3 (snail family transcriptional repressor 3)	-0.06	inactive
18	SNAI3 (snail family transcriptional repressor 3)	-1.03	inactive
19	SNAI3 (snail family transcriptional repressor 3)	-1.02	inactive
20	ARRDC5 (arrestin domain containing 5)	0.43	inactive
21	ARRDC5 (arrestin domain containing 5)	0.29	inactive
22	ARRDC5 (arrestin domain containing 5)	-1.27	inactive
23	ARRDC5 (arrestin domain containing 5)	0.34	inactive
24	SGCD (sarcoglycan delta)		inactive
25	SGCD (sarcoglycan delta)	0.02	inactive
26	SGCD (sarcoglycan delta)	-0.16	inactive
27	SGCD (sarcoglycan delta)	-0.3	inactive
28	SGCD (sarcoglycan delta)	0.03	inactive

8 entries already listed, ordered by “TNF reporter robust z-score”, highest first:
gene symbol	TNF reporter robust z-score	Outcome
CEP131 (centrosomal protein 131)	1.39	inactive
C8B (complement C8 beta chain)	0.58	inactive
C8B (complement C8 beta chain)	0.56	inactive
VPS35L (VPS35 endosomal protein sorting factor like)	0.38	inactive
VPS35L (VPS35 endosomal protein sorting factor like)	0.04	inactive
CEP131 (centrosomal protein 131)	-0.33	inactive
VPS35L (VPS35 endosomal protein sorting factor like)	-0.42	inactive
VPS35L (VPS35 endosomal protein sorting factor like)	-0.44	inactive

The listing continues:
no.	gene symbol	TNF reporter robust z-score	Outcome
29	MRPL22 (mitochondrial ribosomal protein L22)	1.74	inactive
30	MRPL22 (mitochondrial ribosomal protein L22)	-0.44	inactive
31	MRPL22 (mitochondrial ribosomal protein L22)	0.79	inactive
32	MRPL22 (mitochondrial ribosomal protein L22)	3.11	active
33	E2F7 (E2F transcription factor 7)	-1.14	inactive
34	E2F7 (E2F transcription factor 7)	0.4	inactive
35	E2F7 (E2F transcription factor 7)	-0.17	inactive
36	E2F7 (E2F transcription factor 7)	-0.29	inactive
37	MT1F (metallothionein 1F)	-0.63	inactive
38	MT1F (metallothionein 1F)	-0.64	inactive
39	MT1F (metallothionein 1F)	-0.53	inactive
40	MT1F (metallothionein 1F)	-0.15	inactive
41	SIGLEC15 (sialic acid binding Ig like lectin 15)	0.44	inactive
42	SIGLEC15 (sialic acid binding Ig like lectin 15)	-0.61	inactive
43	SIGLEC15 (sialic acid binding Ig like lectin 15)	-0.09	inactive
44	SIGLEC15 (sialic acid binding Ig like lectin 15)	-0.79	inactive
45	GCN1 (GCN1 activator of EIF2AK4)	-1.1	inactive
46	GCN1 (GCN1 activator of EIF2AK4)	-0.75	inactive
47	GCN1 (GCN1 activator of EIF2AK4)	0.24	inactive
48	GCN1 (GCN1 activator of EIF2AK4)	0.55	inactive
49	EVX1 (even-skipped homeobox 1)	-2.18	active
50	EVX1 (even-skipped homeobox 1)	-1.65	active
51	EVX1 (even-skipped homeobox 1)	0.08	inactive
52	EVX1 (even-skipped homeobox 1)	-1.55	active
53	TMEM198 (transmembrane protein 198)	1.4	inactive
54	TMEM198 (transmembrane protein 198)	2.07	inactive
55	TMEM198 (transmembrane protein 198)	2.41	inactive
56	TMEM198 (transmembrane protein 198)	2.21	inactive
57	OR10A6	0.78	inactive
58	OR10A6	2.63	inactive
59	OR10A6	2.05	inactive
60	OR10A6	1.99	inactive
61	DHX34 (DExH-box helicase 34)	1.63	inactive
62	DHX34 (DExH-box helicase 34)	0.63	inactive
63	DHX34 (DExH-box helicase 34)	1.23	inactive
64	DHX34 (DExH-box helicase 34)	0.9	inactive
65	OR5D14 (olfactory receptor family 5 subfamily D member 14)	-0.53	inactive
66	OR5D14 (olfactory receptor family 5 subfamily D member 14)	-0.68	inactive
67	OR5D14 (olfactory receptor family 5 subfamily D member 14)	-0.06	inactive
68	OR5D14 (olfactory receptor family 5 subfamily D member 14)	-0.28	inactive
69	RASGRP3 (RAS guanyl releasing protein 3)	0.77	inactive
70	RASGRP3 (RAS guanyl releasing protein 3)	1.24	inactive
71	RASGRP3 (RAS guanyl releasing protein 3)	0.28	inactive
72	RASGRP3 (RAS guanyl releasing protein 3)	1.39	inactive
73	OR1J2 (olfactory receptor family 1 subfamily J member 2)	-0.24	inactive
74	OR1J2 (olfactory receptor family 1 subfamily J member 2)	0.12	inactive
75	OR1J2 (olfactory receptor family 1 subfamily J member 2)	-0.79	inactive
76	OR1J2 (olfactory receptor family 1 subfamily J member 2)	0.85	inactive
